For one substance, binding results are on record in PMC3902904, “Intrinsically disordered regions of nucleophosmin/B23 regulate its RNA binding activity through their inter- and intra-molecular association” (Nucleic Acids Research, 2013).

Chains of the proteins cited; added tags and fusions are not shown. Residues count along the entry.
GST-B23.1-A (P06748, residues 120-188): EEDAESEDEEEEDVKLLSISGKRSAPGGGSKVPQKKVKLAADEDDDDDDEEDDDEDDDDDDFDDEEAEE
GST-B23.1-CR1.5 (P06748, residues 242-294): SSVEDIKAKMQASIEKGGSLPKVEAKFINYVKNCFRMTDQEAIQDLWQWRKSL

Results are given in words; binding and its absence hold for the method and conditions named.

This assay addresses GST-B23.1-A (human) (UniProt P06748). Put plainly: condition: up to 4.0 µg GST-B23.1-CR1.5 with 0.5 µg GST-B23.1-A; native gel or EMSA; GST-B23.1-A (0.5 µg) mixed with increasing amounts (0.5, 1.0, 2.0, 4.0 µg) of the other GST-tagged fragment in 10 µl buffer H, 30 min, room temperature; 6% native PAGE in 0.5x TBE, CBB staining; both purified. Background: A gel shift assay detects complexes by their altered migration in electrophoresis.

Take “GST-B23.1-CR1.5 (from UniProt P06748 242-294) (domain or fragment)”: the binding result was “no binding”.
